± gives the standard deviation of the averaged measurements. The list shows a part of the results, in another mix than the full data.
Tests used:
Test in all cases: NP40-soluble protein abundance relative to vehicle (solubility fold change) (ratio); higher = more soluble protein in presence of AMP-PNP
NOC4L = biological target: T1, NOC4L (UniProt Q9BVI4)
T1 sequence (whole entry): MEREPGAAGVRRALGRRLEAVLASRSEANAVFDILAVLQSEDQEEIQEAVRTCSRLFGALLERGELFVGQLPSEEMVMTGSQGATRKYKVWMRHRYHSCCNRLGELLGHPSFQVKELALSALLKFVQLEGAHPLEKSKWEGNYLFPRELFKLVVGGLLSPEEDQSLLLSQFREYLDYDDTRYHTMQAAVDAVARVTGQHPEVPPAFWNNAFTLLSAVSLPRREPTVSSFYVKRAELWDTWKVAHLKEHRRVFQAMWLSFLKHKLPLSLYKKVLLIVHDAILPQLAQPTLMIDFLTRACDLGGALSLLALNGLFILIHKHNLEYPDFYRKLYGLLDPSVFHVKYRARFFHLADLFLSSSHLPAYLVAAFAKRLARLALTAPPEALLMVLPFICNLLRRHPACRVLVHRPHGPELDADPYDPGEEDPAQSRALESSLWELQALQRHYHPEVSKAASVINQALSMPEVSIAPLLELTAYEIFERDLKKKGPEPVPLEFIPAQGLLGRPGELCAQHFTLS
Method in brief: (§1)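 Values are fold changes against the detergent-processed vehicle, based on vsn-normalised intensities. Jurkat crude lysate was treated at eight concentrations from 0.1 to 10 mM (10 min at room temperature, then 3 min at 37 °C), solubilised with 0.8% NP40 and benzonase, ultracentrifuged and analysed by TMT-labelled LC-MS/MS over three independent experiments.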

NUF2 = biological target: T2, NUF2 (UniProt Q9BZD4)
T2 sequence (whole entry): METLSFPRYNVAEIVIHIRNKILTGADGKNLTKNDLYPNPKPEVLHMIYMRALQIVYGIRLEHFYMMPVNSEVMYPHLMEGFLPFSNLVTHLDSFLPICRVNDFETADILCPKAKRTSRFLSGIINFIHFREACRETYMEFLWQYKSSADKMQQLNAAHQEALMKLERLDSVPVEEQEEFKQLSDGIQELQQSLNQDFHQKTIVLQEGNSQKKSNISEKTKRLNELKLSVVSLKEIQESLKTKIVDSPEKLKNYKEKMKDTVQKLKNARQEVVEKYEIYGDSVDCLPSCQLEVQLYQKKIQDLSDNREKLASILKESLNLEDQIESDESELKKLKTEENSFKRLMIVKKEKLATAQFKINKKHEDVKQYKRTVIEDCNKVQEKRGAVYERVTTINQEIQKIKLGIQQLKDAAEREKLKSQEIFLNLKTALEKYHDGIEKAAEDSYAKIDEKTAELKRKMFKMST
Method in brief: as §1

STRBP = biological target: T3, STRBP (UniProt Q96SI9)
T3 sequence (whole entry): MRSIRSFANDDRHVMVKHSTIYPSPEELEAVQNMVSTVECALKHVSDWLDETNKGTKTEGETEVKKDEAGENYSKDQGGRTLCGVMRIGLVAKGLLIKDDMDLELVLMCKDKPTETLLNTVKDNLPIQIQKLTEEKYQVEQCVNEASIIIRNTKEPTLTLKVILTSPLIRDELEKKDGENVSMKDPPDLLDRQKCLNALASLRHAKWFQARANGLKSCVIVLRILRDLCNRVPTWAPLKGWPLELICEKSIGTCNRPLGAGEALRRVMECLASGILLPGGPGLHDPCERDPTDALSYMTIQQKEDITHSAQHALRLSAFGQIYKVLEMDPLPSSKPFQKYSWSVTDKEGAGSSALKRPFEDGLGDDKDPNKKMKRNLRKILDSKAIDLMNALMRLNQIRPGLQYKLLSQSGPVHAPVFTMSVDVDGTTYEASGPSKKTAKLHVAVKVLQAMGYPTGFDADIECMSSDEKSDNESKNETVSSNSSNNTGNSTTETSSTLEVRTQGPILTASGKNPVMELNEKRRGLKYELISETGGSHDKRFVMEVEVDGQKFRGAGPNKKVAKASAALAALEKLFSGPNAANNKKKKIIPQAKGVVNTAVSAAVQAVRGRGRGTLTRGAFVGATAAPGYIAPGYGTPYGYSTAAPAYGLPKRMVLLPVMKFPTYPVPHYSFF
Method in brief: as §1

TMEM43 = biological target: T4, TMEM43 (UniProt Q9BTV4)
T4 sequence (whole entry): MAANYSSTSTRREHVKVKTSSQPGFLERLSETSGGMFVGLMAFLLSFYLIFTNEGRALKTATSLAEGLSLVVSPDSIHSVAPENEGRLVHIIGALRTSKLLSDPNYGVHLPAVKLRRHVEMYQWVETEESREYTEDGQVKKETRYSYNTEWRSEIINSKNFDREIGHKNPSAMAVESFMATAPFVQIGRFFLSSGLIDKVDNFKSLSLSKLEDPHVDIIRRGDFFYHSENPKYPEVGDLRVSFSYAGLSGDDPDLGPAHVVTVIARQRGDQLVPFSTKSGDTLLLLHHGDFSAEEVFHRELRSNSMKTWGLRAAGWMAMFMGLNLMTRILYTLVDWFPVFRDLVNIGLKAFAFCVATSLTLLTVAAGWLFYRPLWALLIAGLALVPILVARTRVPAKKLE
Method in brief: as §1

TP53RK = biological target: T5, TP53RK (UniProt Q96S44)
T5 sequence (whole entry): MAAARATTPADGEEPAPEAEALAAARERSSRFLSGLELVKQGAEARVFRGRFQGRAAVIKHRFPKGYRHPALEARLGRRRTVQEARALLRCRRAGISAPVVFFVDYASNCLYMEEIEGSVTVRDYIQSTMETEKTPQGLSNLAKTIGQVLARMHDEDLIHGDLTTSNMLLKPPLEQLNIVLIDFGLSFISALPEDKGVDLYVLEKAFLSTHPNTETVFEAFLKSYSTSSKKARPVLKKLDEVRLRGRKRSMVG
Method in brief: as §1

TTC1 = biological target: T6, TTC1 (UniProt Q99614)
T6 sequence (whole entry): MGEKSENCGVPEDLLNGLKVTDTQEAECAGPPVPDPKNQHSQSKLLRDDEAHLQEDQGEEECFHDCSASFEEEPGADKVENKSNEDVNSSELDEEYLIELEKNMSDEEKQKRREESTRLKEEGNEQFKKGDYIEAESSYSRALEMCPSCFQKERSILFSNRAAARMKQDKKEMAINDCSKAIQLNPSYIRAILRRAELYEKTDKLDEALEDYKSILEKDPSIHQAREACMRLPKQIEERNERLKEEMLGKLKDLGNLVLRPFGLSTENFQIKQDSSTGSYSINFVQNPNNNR
Method in brief: as §1

TXNDC17 = biological target: T7, TXNDC17 (UniProt Q9BRA2)
T7 sequence (whole entry): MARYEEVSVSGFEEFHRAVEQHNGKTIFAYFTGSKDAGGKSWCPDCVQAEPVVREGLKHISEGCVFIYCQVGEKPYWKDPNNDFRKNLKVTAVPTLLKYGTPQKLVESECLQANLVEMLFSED
Method in brief: as §1

UTP14A = biological target: T8, UTP14A (UniProt Q9BVJ6)
T8 sequence (whole entry): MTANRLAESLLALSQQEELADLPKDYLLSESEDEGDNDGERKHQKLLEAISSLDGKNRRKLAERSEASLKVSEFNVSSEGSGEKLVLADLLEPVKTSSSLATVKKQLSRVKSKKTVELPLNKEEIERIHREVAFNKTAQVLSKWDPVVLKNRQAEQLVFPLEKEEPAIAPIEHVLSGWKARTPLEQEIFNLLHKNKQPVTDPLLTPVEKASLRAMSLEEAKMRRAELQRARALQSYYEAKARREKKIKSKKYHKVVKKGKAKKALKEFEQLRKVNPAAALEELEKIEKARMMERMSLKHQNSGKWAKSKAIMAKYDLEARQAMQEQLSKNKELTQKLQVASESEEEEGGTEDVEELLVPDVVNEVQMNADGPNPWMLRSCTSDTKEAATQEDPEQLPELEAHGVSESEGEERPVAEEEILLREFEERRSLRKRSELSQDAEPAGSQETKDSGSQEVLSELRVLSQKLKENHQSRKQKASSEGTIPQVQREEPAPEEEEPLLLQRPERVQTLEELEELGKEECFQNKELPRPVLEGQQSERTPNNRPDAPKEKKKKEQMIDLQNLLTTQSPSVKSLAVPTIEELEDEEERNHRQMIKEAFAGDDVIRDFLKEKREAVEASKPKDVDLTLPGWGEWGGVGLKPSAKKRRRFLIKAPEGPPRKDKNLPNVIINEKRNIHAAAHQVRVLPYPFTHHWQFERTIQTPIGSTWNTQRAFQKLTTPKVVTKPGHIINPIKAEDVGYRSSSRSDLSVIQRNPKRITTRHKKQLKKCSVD
Method in brief: as §1

UniProt Q96RF0-2 = biological target: T9, UniProt Q96RF0-2
T9 sequence (whole entry): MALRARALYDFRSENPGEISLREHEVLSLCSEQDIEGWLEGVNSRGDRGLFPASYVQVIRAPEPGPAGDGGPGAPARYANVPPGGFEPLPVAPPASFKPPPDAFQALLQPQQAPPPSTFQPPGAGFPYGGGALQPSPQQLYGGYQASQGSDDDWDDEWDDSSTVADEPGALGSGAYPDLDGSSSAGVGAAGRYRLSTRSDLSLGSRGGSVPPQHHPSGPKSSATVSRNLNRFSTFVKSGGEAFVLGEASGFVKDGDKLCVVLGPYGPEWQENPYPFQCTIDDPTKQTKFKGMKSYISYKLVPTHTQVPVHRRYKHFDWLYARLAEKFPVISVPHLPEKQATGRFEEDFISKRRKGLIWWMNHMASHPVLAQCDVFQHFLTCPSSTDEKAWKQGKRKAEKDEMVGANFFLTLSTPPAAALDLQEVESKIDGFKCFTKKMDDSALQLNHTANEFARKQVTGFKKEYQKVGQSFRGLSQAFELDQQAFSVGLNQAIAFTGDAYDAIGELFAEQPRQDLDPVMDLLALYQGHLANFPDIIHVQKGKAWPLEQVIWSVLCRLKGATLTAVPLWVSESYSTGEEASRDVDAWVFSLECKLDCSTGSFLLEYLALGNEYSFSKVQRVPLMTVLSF
Method in brief: as §1

Compound: Nc1ncnc2c1ncn2[C@@H]1O[C@H](COP(=O)(O)OP(=O)(O)NP(=O)(O)O)[C@@H](O)[C@H]1O [adenylyl imidodiphosphate]
- NP40-soluble protein abundance (NOC4L; concentration: 2mM): 1 ± 0.021
- NP40-soluble protein abundance (NOC4L; concentration: 4mM): 0.983 ± 0.021
- NP40-soluble protein abundance (NOC4L; concentration: 6mM): 0.99 ± 0.03
- NP40-soluble protein abundance (NOC4L; concentration: 8mM): 1.01 ± 0.035
- NP40-soluble protein abundance (NOC4L; concentration: 10mM): 0.9728 ± 0.0067
- NP40-soluble protein abundance (NUF2; concentration: 1mM): 0.996 ± 0.016
- NP40-soluble protein abundance (NUF2; concentration: 2mM): 1.04 ± 0.053
- NP40-soluble protein abundance (NUF2; concentration: 4mM): 1.01 ± 0.012
- NP40-soluble protein abundance (NUF2; concentration: 6mM): 1.05 ± 0.025
- NP40-soluble protein abundance (NUF2; concentration: 8mM): 1.005 ± 0.0076
- NP40-soluble protein abundance (NUF2; concentration: 10mM): 1.04 ± 0.032
- NP40-soluble protein abundance (STRBP; concentration: 1mM): 1.02 ± 0.043
- NP40-soluble protein abundance (STRBP; concentration: 2mM): 1.01 ± 0.066
- NP40-soluble protein abundance (STRBP; concentration: 4mM): 1.06 ± 0.059
- NP40-soluble protein abundance (STRBP; concentration: 6mM): 1.09 ± 0.042
- NP40-soluble protein abundance (STRBP; concentration: 8mM): 1.12 ± 0.064
- NP40-soluble protein abundance (STRBP; concentration: 10mM): 1.11 ± 0.073
- NP40-soluble protein abundance (TMEM43; concentration: 1mM): 0.928 ± 0.052
- NP40-soluble protein abundance (TMEM43; concentration: 2mM): 0.843 ± 0.043
- NP40-soluble protein abundance (TMEM43; concentration: 4mM): 0.887 ± 0.028
- NP40-soluble protein abundance (TMEM43; concentration: 6mM): 0.877 ± 0.04
- NP40-soluble protein abundance (TMEM43; concentration: 8mM): 0.921 ± 0.054
- NP40-soluble protein abundance (TMEM43; concentration: 10mM): 0.82 ± 0.064
- NP40-soluble protein abundance (TP53RK; concentration: 1mM): 0.93 ± 0.028
- NP40-soluble protein abundance (TP53RK; concentration: 2mM): 0.923 ± 0.064
- NP40-soluble protein abundance (TP53RK; concentration: 4mM): 0.961 ± 0.044
- NP40-soluble protein abundance (TP53RK; concentration: 6mM): 1.03 ± 0.072
- NP40-soluble protein abundance (TP53RK; concentration: 8mM): 0.999 ± 0.026
- NP40-soluble protein abundance (TP53RK; concentration: 10mM): 1 ± 0.064
- NP40-soluble protein abundance (TTC1; concentration: 1mM): 1.02 ± 0.022
- NP40-soluble protein abundance (TTC1; concentration: 2mM): 1 ± 0.031
- NP40-soluble protein abundance (TTC1; concentration: 4mM): 0.983 ± 0.025
- NP40-soluble protein abundance (TTC1; concentration: 6mM): 0.954 ± 0.028
- NP40-soluble protein abundance (TTC1; concentration: 8mM): 0.952 ± 0.028
- NP40-soluble protein abundance (TTC1; concentration: 10mM): 0.929 ± 0.022
- NP40-soluble protein abundance (TXNDC17; concentration: 1mM): 1.03 ± 0.075
- NP40-soluble protein abundance (TXNDC17; concentration: 2mM): 0.984 ± 0.031
- NP40-soluble protein abundance (TXNDC17; concentration: 4mM): 1.01 ± 0.074
- NP40-soluble protein abundance (TXNDC17; concentration: 6mM): 0.981 ± 0.031
- NP40-soluble protein abundance (TXNDC17; concentration: 8mM): 0.98 ± 0.055
- NP40-soluble protein abundance (TXNDC17; concentration: 10mM): 0.96 ± 0.045
- NP40-soluble protein abundance (UTP14A; concentration: 1mM): 1.07 ± 0.01
- NP40-soluble protein abundance (UTP14A; concentration: 2mM): 1.12 ± 0.053
- NP40-soluble protein abundance (UTP14A; concentration: 4mM): 1.17 ± 0.045
- NP40-soluble protein abundance (UTP14A; concentration: 6mM): 1.19 ± 0.021
- NP40-soluble protein abundance (UTP14A; concentration: 8mM): 1.21 ± 0.033
- NP40-soluble protein abundance (UTP14A; concentration: 10mM): 1.28 ± 0.031
- NP40-soluble protein abundance (UniProt Q96RF0-2; concentration: 1mM): 1.0202 ± 0.00095
- NP40-soluble protein abundance (UniProt Q96RF0-2; concentration: 2mM): 1.013 ± 0.0022
- NP40-soluble protein abundance (UniProt Q96RF0-2; concentration: 4mM): 1.01 ± 0.025
